Test results as given in the supplement of paper PMC7666118.
Some of the results follow.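 The calls were made as follows: active = dose-dependent thermal stabilisation significant by F-test of dose-response against flat model at 10% FDR; inactive = not significant.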

Target: HIVEP1 (UniProt P15822)
Test: dose-dependent thermal stabilisation call (2D-TPP, DLPTP, 10% FDR) (binary (1 = stabilised)); higher = stabilised by the compound
Settings: system: Jurkat gel-filtered lysate; concentration range 1-500 µM
Experimental: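 2D thermal proteome profiling in gel-filtered Jurkat E6.1 lysate (2 mg/ml) treated with NaGTP (0, 1, 10, 100, 500 uM) for 10 min at room temperature, then heated 3 min at one of 12 temperatures (42-63.9 C). Soluble protein was quantified by TMT10 MS. The value is the DLPTP call of the paper: dose-dependent thermal stabilisation over all temperatures at 10% FDR (F-test of a dose-response against a flat model); one experiment, one call per tested protein.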

SMILES	dose-dependent thermal stabilisation call
Nc1nc2c(ncn2[C@@H]2O[C@H](COP(=O)(O)OP(=O)(O)OP(=O)(O)O)[C@@H](O)[C@H]2O)c(=O)[nH]1	inactive: 0
